PubChem BioAssay AID504791, Drosophila RNAi Screening Center, 2011
Screen: 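Factors in Argonaute-based small RNA production and activity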 (primary screen). Cell system: Drosophila S2-derived reporter cells. Knock-down reagent: long dsRNA against Drosophila genes, about 150-250 ng dsRNA per well (siRNA assay); about 80-120 ng (miRNA assay). Duration: about 5 days (siRNA assay); about 4 days (miRNA assay). Challenge: copper sulfate induction of reporters: 25 µM (siRNA assay); 200 mM stated (miRNA assay), 1-2 days before reading. Measured: 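Dual luciferase assay: Renilla to firefly signal ratio in each well, scaled to the mean ratio of its plate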. Units: stable assay Renilla, run 1 in luminescence; stable assay firefly, run 1 in luminescence. Active means: 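a well was a first-pass pick when its plate-scaled ratio rose above 1.5 (siRNA assay) or 1.6 (miRNA assay), or dropped below 0.6; a gene counted only if two separate dsRNAs agreed on retest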.
The deposit covers about 23,000 reagents; this is an unselected part of those with a known target gene and a result. In the full data, 199 (0.86%) are marked active. 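Plate-scaled ratios behind the calls are not deposited; printed light signals are raw; many rows marked increased or decreased are still called inactive.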 A number with no mark means an inactive call. The record does not give: the direction of the score.

Which result is listed for Hexo1 (Hexosaminidase 1) [DRSC08663]?
stable assay Renilla, run 1: 6879; stable assay firefly, run 1: 4.65e5

With nsl1 (non-specific lethal 1) [DRSC15625], what was measured?
stable assay Renilla, run 1: 18788; stable assay firefly, run 1: 6.14e5

What did the screen give for CG13623 [DRSC14625]?
stable assay Renilla, run 1: 6510; stable assay firefly, run 1: 2.91e5

With Ser (Serrate) [DRSC16856], what was measured?
stable assay Renilla, run 1: 6630; stable assay firefly, run 1: 3.58e5

How did the screen score S-Lap7 (Sperm-Leucylaminopeptidase 7) [DRSC06374]?
stable assay Renilla, run 1: 6622; stable assay firefly, run 1: 3.45e5

With CG5773 [DRSC06955], what was measured?
stable assay Renilla, run 1: 9171; stable assay firefly, run 1: 3.70e5

What did the screen give for RpL7 (Ribosomal protein L7) [DRSC03417]?
stable assay Renilla, run 1: 7933; stable assay firefly, run 1: 3.50e5

For CG40282 (retired record) [DRSC07814], what was measured?
stable assay Renilla, run 1: 7046; stable assay firefly, run 1: 3.60e5

Which result is listed for CG10336 [DRSC02037]?
stable assay Renilla, run 1: 7534; stable assay firefly, run 1: 1.65e6

For CG3437 [DRSC10366], how do the results read?
stable assay Renilla, run 1: 5739; stable assay firefly, run 1: 3.15e5

How did the screen score CG16868 [DRSC06633]?
stable assay Renilla, run 1: 9159; stable assay firefly, run 1: 3.37e5

What is on record for lark [DRSC11362]?
stable assay Renilla, run 1: 6008; stable assay firefly, run 1: 2.86e5

With CG15739 [DRSC19705], what does the deposit list?
stable assay Renilla, run 1: 5839; stable assay firefly, run 1: 5.21e5

What is on record for CG10853 [DRSC08164]?
stable assay Renilla, run 1: 6332; stable assay firefly, run 1: 2.77e5

How did the screen score mei-38 (meiotic 38) [DRSC18564]?
stable assay Renilla, run 1: 6184; stable assay firefly, run 1: 3.71e5

What is on record for CG42531 [DRSC05318]?
stable assay Renilla, run 1: 6986; stable assay firefly, run 1: 6.24e5

For CG15117 [DRSC06539], how do the results read?
stable assay Renilla, run 1: 10950; stable assay firefly, run 1: 5.40e5

For CG10459 [DRSC05991], how do the results read?
stable assay Renilla, run 1: 7006; stable assay firefly, run 1: 4.66e5

What did the screen give for CG10459 [DRSC22092]?
stable assay Renilla, run 1: 11521; stable assay firefly, run 1: 7.75e5

Which result is listed for Mpp6 (M-phase phosphoprotein 6) [DRSC03169]?
stable assay Renilla, run 1: 8168; stable assay firefly, run 1: 4.02e5

Which result is listed for CG17752 [DRSC15262]?
stable assay Renilla, run 1: 6487; stable assay firefly, run 1: 2.88e5

With Ance-3 [DRSC02648], what does the deposit list?
stable assay Renilla, run 1: 7259; stable assay firefly, run 1: 4.55e5

What did the screen give for Ance-3 [DRSC02649]?
stable assay Renilla, run 1: 7423; stable assay firefly, run 1: 5.01e5

For heca (headcase) [DRSC16964], what was measured?
stable assay Renilla, run 1: 5100; stable assay firefly, run 1: 2.43e5

How did the screen score heca (headcase) [DRSC22990]?
stable assay Renilla, run 1: 4444; stable assay firefly, run 1: 3.88e5

For CG46441 [DRSC15561], what was measured?
stable assay Renilla, run 1: 7555; stable assay firefly, run 1: 2.72e5

How did the screen score CG11145 [DRSC06049]?
stable assay Renilla, run 1: 5935; stable assay firefly, run 1: 3.56e5

How did the screen score CG34278 [DRSC13208]?
stable assay Renilla, run 1: 4591; stable assay firefly, run 1: 4.32e5

Which result is listed for RhoGEF3 (Rho guanine nucleotide exchange factor 3) [DRSC08351]?
stable assay Renilla, run 1: 6955; stable assay firefly, run 1: 3.02e5

What is on record for RhoGEF3 (Rho guanine nucleotide exchange factor 3) [DRSC08352]?
stable assay Renilla, run 1: 5979; stable assay firefly, run 1: 3.18e5

How did the screen score CG3548 [DRSC04387]?
stable assay Renilla, run 1: 33989; stable assay firefly, run 1: 1.67e6

With Ddrgk1 (DDRGK domain containing 1) [DRSC15897], what does the deposit list?
stable assay Renilla, run 1: 9585; stable assay firefly, run 1: 4.02e5

Which result is listed for CG9168 [DRSC08633]?
stable assay Renilla, run 1: 6835; stable assay firefly, run 1: 3.57e5

With TwdlT (TweedleT) [DRSC16677], what does the deposit list?
stable assay Renilla, run 1: 6363; stable assay firefly, run 1: 4.23e5

With TwdlT (TweedleT) [DRSC21540], how do the results read?
stable assay Renilla, run 1: 8902; stable assay firefly, run 1: 4.29e5

Copied from the list.
For “stable assay firefly, run 1”, CG11145 [DRSC06049] shows 3.56e5
Value for CG46441 [DRSC15561] in “stable assay firefly, run 1”: 2.72e5
